Source: PMC8253827
These are yes or no findings as the source states them, for the method shown. In cells and extracts the contact can be indirect. Some entries that bind do so weakly or less than the wild type.

Target: T1, mouse FYCO1, endogenous (mouse (endogenous in eyeballs)) (UniProt Q8VDC1)
T1 sequence: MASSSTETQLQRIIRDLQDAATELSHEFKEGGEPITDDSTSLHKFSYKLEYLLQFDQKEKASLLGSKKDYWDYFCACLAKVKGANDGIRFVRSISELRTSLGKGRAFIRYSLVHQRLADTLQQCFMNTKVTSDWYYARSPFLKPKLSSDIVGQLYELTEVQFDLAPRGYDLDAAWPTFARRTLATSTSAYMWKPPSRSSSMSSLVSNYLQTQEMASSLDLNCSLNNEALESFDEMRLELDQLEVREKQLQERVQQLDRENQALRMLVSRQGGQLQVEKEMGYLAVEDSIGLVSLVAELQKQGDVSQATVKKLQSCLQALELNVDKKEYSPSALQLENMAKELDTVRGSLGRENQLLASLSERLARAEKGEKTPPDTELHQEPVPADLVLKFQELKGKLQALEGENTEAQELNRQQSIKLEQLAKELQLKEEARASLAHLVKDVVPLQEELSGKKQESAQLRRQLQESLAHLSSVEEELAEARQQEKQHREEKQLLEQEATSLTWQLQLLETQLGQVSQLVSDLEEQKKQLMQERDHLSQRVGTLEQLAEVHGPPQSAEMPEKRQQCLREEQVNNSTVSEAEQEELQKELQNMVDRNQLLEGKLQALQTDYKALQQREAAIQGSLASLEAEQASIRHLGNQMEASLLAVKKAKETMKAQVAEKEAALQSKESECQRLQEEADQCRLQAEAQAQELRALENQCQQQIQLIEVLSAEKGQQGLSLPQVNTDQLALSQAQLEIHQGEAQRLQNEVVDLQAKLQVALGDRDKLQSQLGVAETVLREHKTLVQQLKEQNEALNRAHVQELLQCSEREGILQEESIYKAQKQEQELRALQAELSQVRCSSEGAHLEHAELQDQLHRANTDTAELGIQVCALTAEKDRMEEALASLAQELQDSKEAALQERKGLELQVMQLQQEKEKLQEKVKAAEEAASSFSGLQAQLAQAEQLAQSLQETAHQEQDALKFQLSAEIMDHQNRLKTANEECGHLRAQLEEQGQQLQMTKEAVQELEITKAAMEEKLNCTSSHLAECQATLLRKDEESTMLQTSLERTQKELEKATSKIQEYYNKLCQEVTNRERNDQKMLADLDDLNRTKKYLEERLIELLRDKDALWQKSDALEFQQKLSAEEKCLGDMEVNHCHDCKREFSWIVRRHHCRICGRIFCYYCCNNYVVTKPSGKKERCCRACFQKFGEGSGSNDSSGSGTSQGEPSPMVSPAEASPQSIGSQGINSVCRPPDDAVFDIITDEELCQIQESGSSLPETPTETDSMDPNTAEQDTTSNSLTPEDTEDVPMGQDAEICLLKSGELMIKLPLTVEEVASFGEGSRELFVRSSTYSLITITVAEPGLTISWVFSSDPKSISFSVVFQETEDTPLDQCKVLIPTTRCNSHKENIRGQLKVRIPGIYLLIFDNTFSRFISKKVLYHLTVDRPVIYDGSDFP
Experiment: co-IP; endogenous proteins; WT mouse eye lysate (10 mg, 1% Triton X-100 lysis buffer) immunoprecipitated with rabbit anti-FYCO1 or control antibody and protein A sepharose; blot with anti-αA or anti-αB crystallin

B1: mouse αB-crystallin, endogenous (protein, UniProt P23927 1-175)
chain: MDIAIHHPWIRRPFFPFHSPSRLFDQFFGEHLLESDLFSTATSLSPFYLRPPSFLRAPSWIDTGLSEMRLEKDRFSVNLDVKHFSPEELKVKVLGDVIEVHGKHEERQDEHGFISREFHRKYRIPADVDPLTITSSLSSDGVLTVNGPRKQVSGPERTIPITREEKPAVAAAPKK
B1 was tested, and the binding was “binds”.
